Among the data in the supplement of paper PMC6411743 are NP40-soluble protein abundance values, retold here.

By UniProt entry, the sequences of proteins in these tests, tags left out. Where a name states a change or a piece, a line headed by the entry shows the natural chain unless it says otherwise.
UniProt P80404: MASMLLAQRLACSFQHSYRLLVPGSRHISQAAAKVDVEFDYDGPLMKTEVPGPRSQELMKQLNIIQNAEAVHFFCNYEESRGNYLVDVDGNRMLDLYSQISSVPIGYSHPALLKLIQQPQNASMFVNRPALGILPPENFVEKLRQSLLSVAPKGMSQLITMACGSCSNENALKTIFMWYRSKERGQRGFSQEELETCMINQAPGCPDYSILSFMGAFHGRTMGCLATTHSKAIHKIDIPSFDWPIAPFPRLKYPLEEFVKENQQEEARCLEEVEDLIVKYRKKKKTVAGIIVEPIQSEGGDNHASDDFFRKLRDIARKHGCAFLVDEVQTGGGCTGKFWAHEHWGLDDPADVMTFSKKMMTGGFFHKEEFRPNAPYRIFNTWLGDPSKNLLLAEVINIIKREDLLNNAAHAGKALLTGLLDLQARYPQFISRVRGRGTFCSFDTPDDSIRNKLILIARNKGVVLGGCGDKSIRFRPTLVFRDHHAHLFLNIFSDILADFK
UniProt Q92733: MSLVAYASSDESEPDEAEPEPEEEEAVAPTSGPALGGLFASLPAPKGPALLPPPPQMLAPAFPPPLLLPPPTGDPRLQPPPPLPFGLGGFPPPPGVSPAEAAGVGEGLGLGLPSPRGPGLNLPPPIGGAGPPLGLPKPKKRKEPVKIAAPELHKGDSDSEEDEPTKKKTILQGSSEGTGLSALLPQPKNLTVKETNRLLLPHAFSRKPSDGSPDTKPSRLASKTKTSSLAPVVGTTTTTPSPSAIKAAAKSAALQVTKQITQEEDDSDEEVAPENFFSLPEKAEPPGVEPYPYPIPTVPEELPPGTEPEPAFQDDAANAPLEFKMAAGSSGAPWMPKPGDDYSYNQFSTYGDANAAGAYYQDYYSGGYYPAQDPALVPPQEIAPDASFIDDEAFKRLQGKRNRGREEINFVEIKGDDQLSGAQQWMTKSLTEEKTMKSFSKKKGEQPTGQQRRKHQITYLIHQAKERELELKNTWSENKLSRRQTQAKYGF
UniProt Q96RK0: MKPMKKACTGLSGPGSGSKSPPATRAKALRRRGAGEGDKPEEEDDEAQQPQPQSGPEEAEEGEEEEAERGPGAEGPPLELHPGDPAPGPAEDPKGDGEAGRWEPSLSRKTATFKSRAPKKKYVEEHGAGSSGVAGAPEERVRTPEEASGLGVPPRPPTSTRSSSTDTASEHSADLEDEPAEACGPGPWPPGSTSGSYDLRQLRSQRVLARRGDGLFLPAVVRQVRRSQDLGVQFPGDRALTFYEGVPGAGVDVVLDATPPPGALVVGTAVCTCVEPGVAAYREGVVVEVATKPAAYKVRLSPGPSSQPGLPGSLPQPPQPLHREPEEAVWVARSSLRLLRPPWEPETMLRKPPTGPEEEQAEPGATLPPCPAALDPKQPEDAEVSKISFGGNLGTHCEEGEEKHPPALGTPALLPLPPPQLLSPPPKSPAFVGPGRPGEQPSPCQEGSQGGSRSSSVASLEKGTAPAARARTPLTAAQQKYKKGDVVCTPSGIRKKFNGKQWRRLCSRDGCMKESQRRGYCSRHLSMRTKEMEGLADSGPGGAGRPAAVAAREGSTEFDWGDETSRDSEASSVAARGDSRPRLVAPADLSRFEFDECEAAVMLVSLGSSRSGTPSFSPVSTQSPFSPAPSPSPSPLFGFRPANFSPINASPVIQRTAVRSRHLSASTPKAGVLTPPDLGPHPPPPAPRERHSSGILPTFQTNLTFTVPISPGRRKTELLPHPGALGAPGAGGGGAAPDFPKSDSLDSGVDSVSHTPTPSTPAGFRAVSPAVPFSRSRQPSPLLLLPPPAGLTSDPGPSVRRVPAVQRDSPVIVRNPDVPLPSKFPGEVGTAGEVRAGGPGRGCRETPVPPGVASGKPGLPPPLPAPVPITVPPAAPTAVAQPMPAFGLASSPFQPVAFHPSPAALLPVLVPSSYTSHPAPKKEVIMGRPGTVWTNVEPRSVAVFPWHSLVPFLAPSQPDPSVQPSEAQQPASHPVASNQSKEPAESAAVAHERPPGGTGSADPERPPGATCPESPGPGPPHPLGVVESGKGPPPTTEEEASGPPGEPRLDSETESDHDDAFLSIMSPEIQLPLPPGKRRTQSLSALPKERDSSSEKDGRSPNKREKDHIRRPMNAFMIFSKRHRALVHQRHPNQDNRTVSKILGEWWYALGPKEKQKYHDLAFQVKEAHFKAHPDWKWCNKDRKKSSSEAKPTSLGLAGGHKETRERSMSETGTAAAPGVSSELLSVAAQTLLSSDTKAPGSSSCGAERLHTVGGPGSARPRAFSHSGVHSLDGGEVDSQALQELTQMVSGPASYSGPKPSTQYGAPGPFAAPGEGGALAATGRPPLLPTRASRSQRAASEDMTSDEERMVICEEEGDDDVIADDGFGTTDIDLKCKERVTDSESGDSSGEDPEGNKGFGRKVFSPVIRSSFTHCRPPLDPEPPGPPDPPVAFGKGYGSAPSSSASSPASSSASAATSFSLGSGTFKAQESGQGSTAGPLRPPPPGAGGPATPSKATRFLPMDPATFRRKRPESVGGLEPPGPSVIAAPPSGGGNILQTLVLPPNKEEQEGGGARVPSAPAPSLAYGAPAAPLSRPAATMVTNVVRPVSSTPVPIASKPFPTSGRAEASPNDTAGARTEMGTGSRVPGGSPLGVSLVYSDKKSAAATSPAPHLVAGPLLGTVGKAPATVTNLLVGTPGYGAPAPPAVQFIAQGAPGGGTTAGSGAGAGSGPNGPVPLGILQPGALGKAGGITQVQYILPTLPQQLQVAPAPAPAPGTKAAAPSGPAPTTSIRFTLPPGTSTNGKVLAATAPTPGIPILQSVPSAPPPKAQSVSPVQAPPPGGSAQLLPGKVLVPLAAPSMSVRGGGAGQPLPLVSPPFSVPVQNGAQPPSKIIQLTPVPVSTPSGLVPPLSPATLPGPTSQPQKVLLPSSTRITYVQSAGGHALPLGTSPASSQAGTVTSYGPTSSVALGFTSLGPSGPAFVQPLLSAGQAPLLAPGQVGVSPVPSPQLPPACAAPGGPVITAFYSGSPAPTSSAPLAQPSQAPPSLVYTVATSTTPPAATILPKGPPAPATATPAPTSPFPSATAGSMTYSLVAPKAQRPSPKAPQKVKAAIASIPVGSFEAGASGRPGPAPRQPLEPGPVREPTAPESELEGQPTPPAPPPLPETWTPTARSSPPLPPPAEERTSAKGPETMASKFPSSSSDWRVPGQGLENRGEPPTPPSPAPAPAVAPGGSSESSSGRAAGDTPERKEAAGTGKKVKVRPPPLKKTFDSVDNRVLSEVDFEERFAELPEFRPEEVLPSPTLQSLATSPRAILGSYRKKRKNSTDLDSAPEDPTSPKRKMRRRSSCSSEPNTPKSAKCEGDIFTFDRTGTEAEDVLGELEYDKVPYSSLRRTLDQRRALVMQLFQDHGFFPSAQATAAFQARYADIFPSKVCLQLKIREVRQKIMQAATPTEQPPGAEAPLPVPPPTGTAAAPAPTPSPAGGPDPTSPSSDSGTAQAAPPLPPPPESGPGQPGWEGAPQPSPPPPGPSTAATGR
UniProt Q13485: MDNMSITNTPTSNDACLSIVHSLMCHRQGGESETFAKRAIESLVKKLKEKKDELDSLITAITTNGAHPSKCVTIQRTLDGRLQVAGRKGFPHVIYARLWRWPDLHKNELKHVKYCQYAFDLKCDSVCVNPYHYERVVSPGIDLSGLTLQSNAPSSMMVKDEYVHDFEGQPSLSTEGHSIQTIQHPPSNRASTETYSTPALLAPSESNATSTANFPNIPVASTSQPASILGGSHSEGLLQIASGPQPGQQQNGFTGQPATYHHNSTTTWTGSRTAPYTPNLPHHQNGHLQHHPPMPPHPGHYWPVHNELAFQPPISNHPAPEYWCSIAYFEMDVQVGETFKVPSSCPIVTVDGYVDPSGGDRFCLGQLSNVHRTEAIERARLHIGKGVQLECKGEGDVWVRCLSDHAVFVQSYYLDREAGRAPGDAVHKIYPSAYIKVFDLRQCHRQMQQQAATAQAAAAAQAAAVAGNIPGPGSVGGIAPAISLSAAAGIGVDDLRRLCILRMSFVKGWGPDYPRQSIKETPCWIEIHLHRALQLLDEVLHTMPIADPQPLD
UniProt O43776: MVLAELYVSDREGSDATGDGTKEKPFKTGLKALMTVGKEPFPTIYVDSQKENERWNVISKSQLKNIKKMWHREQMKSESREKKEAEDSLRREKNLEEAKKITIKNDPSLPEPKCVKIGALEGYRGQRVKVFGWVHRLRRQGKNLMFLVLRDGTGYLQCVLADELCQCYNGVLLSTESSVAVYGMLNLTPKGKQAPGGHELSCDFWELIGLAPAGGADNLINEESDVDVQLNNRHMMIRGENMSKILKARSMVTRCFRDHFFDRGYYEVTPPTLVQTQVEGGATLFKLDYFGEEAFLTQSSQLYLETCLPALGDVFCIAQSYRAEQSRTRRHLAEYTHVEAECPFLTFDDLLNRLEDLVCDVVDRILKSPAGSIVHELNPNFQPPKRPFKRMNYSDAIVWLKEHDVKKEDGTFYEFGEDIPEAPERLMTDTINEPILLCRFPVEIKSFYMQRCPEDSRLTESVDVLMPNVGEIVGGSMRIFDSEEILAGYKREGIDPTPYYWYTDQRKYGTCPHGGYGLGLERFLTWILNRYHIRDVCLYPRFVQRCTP
UniProt Q96SW2: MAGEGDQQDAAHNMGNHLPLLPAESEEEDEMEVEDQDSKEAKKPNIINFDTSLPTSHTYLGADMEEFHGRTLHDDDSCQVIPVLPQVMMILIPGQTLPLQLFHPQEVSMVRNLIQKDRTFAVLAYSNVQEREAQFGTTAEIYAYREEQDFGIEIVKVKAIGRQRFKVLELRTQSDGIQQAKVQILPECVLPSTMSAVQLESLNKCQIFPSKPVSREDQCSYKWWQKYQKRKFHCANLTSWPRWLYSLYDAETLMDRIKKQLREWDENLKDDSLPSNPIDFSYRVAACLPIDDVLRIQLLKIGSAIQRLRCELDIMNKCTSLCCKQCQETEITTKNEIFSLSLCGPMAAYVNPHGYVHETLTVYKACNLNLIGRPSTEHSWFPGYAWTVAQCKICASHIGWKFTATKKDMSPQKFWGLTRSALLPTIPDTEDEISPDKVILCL
UniProt Q9BTW9: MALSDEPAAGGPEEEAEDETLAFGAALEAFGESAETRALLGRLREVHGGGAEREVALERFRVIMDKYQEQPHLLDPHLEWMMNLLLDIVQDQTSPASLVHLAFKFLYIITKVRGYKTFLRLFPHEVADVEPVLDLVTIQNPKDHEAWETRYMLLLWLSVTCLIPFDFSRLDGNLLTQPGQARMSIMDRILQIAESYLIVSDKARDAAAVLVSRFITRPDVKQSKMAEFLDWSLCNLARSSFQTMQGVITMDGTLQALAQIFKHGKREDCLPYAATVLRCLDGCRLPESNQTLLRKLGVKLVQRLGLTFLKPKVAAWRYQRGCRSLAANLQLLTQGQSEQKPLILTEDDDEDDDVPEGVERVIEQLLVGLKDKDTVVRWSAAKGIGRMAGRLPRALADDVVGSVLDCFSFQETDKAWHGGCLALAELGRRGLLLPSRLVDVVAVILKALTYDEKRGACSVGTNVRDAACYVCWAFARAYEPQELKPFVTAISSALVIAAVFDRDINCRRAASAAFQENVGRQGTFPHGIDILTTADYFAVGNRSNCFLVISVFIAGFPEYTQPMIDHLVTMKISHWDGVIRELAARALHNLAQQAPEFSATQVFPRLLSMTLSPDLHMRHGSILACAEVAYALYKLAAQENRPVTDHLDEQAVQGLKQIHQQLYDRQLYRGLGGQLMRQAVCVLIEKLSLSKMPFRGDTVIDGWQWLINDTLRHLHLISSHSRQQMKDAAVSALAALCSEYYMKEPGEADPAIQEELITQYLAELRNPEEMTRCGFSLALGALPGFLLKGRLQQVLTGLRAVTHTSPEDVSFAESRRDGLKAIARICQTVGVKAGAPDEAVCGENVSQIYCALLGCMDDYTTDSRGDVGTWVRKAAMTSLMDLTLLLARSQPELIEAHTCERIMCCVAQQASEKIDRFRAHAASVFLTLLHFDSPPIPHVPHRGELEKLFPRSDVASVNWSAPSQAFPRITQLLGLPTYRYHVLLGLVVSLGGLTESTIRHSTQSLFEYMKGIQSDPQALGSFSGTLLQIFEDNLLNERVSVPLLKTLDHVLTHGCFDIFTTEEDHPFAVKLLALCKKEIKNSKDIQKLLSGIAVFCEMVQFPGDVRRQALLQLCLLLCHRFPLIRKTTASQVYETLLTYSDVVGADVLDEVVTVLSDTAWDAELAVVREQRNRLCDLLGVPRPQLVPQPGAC
UniProt Q7Z4W1: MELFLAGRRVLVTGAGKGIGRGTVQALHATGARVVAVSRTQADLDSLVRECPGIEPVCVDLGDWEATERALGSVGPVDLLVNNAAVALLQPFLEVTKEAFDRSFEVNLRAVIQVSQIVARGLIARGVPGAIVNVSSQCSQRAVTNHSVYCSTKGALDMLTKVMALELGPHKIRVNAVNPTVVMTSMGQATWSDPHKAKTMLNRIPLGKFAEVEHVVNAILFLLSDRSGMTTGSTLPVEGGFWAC

± gives the standard deviation of the averaged measurements. The entries are a selection whose mix differs from that of the whole data set.

Compound in the assay: Nc1ncnc2c1ncn2[C@@H]1O[C@H](COP(=O)(O)OP(=O)(O)OP(=O)(O)O)[C@@H](O)[C@H]1O [adenosine triphosphate]
The assay can be described thus: NP40-soluble protein abundance relative to vehicle (solubility fold change) (ratio); higher = more soluble protein in presence of ATP. In a few lines: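 Jurkat crude lysate prepared with a Dounce homogeniser was treated at eight concentrations spanning 0.1 to 10 mM, 10 min at room temperature then 3 min at 37 °C. Solubilisation with 0.8% NP40 and benzonase and ultracentrifugation preceded TMT labelling of the supernatant for LC-MS/MS. Fold change against the detergent-processed vehicle was determined per replicate from vsn-normalised intensities, across three independent experiments.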

Take H0YEM9 (UniProt Q8NCP5): the NP40-soluble protein abundance is, setting by setting: (concentration: 1mM) 1.11 ± 0.091; (concentration: 2mM) 1.204 ± 0.0018; (concentration: 4mM) 1.2 ± 0.095; (concentration: 6mM) 1.25 ± 0.033; (concentration: 8mM) 1.19 ± 0.036; (concentration: 10mM) 1.32 ± 0.025.

Take “H3BRN4 and related entries (UniProt P80404)”: the NP40-soluble protein abundance (concentration: 1mM) amounted to 0.986 ± 0.067; the NP40-soluble protein abundance (concentration: 2mM) was 1 ± 0.062; the NP40-soluble protein abundance (concentration: 4mM) was 1.01 ± 0.037; the NP40-soluble protein abundance (concentration: 6mM) worked out at 0.908 ± 0.089; the NP40-soluble protein abundance (concentration: 8mM) was found to be 0.985 ± 0.031; the NP40-soluble protein abundance (concentration: 10mM) was 0.98 ± 0.038.

Regarding “H7C2F9 and related entries (UniProt Q15032)”, the NP40-soluble protein abundance by setting is: (concentration: 1mM) 0.942 ± 0.11; (concentration: 2mM) 0.924 ± 0.041; (concentration: 4mM) 0.941 ± 0.047; (concentration: 6mM) 0.937 ± 0.063; (concentration: 8mM) 0.891 ± 0.056; (concentration: 10mM) 0.91 ± 0.029.

Consider “H0YNP9 and related entries (UniProt Q8N4P3)”, for which the NP40-soluble protein abundance (concentration: 1mM) is 1.17 ± 0.44; the NP40-soluble protein abundance (concentration: 2mM) turned out to be 1.19 ± 0.26; the NP40-soluble protein abundance (concentration: 4mM) was determined as 1.08 ± 0.2; the NP40-soluble protein abundance (concentration: 6mM) worked out at 1.16 ± 0.25; the NP40-soluble protein abundance (concentration: 8mM) is 1.08 ± 0.07; the NP40-soluble protein abundance (concentration: 10mM) was 1.08 ± 0.18.

For “H0YLX2 and related entries (UniProt Q2KHR2)”, the NP40-soluble protein abundance turned out to be 0.988 ± 0.051 (concentration: 1mM); 0.985 ± 0.024 (concentration: 2mM); 0.98 ± 0.072 (concentration: 4mM); 1 ± 0.044 (concentration: 6mM); 0.957 ± 0.033 (concentration: 8mM); 0.9555 ± 0.0038 (concentration: 10mM).

On to “H0YIS7 and related entries (UniProt Q8IXM2+H0YIS7)”, for which the NP40-soluble protein abundance (concentration: 1mM) is 0.84 ± 0.13; the NP40-soluble protein abundance (concentration: 2mM) came out at 0.884 ± 0.13; the NP40-soluble protein abundance (concentration: 4mM) was determined as 0.837 ± 0.089; the NP40-soluble protein abundance (concentration: 6mM) amounted to 0.833 ± 0.19; the NP40-soluble protein abundance (concentration: 8mM) came to 0.77 ± 0.034; the NP40-soluble protein abundance (concentration: 10mM) turned out to be 0.824 ± 0.14.

Consider “H0Y679 and related entries (UniProt Q92733)”, for which the NP40-soluble protein abundance is, setting by setting: (concentration: 1mM) 1.01 ± 0.074; (concentration: 2mM) 1.03 ± 0.016; (concentration: 4mM) 0.996 ± 0.049; (concentration: 6mM) 0.992 ± 0.068; (concentration: 8mM) 0.952 ± 0.048; (concentration: 10mM) 0.974 ± 0.028.

As for “H3BP20 and related entries (UniProt P06865)”, the NP40-soluble protein abundance reads like this: (concentration: 1mM) 0.975 ± 0.072; (concentration: 2mM) 0.979 ± 0.052; (concentration: 4mM) 0.946 ± 0.05; (concentration: 6mM) 0.899 ± 0.11; (concentration: 8mM) 0.945 ± 0.041; (concentration: 10mM) 0.964 ± 0.053.

In the case of I3L2J0 (UniProt Q96RK0), the NP40-soluble protein abundance stood at 0.94 ± 0.058 (concentration: 1mM); 0.955 ± 0.11 (concentration: 2mM); 0.933 ± 0.084 (concentration: 4mM); 0.946 ± 0.084 (concentration: 6mM); 0.921 ± 0.06 (concentration: 8mM); 0.931 ± 0.098 (concentration: 10mM).

Turning to “K7EIU8 and related entries (UniProt Q13485)”, the NP40-soluble protein abundance runs as follows: (concentration: 1mM) 1 ± 0.086; (concentration: 2mM) 0.986 ± 0.039; (concentration: 4mM) 0.943 ± 0.015; (concentration: 6mM) 0.9 ± 0.095; (concentration: 8mM) 0.968 ± 0.069; (concentration: 10mM) 1 ± 0.035.

“J3QS41 and related entries (UniProt P42694)”: the NP40-soluble protein abundance by setting is: (concentration: 1mM) 1.05 ± 0.064; (concentration: 2mM) 1.03 ± 0.036; (concentration: 4mM) 1.05 ± 0.067; (concentration: 6mM) 1.01 ± 0.033; (concentration: 8mM) 1.04 ± 0.042; (concentration: 10mM) 1.06 ± 0.039.

For “H0YLN8 and related entries (UniProt Q96QT4)”, the NP40-soluble protein abundance is, setting by setting: (concentration: 1mM) 1.12 ± 0.18; (concentration: 2mM) 1.02 ± 0.039; (concentration: 4mM) 1.17 ± 0.12; (concentration: 6mM) 1.01 ± 0.068; (concentration: 8mM) 0.99025 ± 0.00084; (concentration: 10mM) 1.008 ± 0.0067.

Turning to “K7ENF0 and related entries (UniProt O43776)”, the NP40-soluble protein abundance runs as follows: (concentration: 1mM) 0.972 ± 0.026; (concentration: 2mM) 0.962 ± 0.044; (concentration: 4mM) 0.9276 ± 0.0063; (concentration: 6mM) 0.905 ± 0.043; (concentration: 8mM) 0.975 ± 0.053; (concentration: 10mM) 0.948 ± 0.05.

For the target “H0YLM8 and related entries (UniProt Q8TDJ6)”, the NP40-soluble protein abundance amounted to 0.965 ± 0.069 (concentration: 1mM); 0.938 ± 0.061 (concentration: 2mM); 0.97 ± 0.031 (concentration: 4mM); 0.933 ± 0.091 (concentration: 6mM); 0.993 ± 0.049 (concentration: 8mM); 1.01 ± 0.13 (concentration: 10mM).

On to “J3QT87 and related entries (UniProt Q96SW2)”, for which the NP40-soluble protein abundance runs as follows: (concentration: 1mM) 0.952 ± 0.09; (concentration: 2mM) 0.933 ± 0.064; (concentration: 4mM) 0.927 ± 0.11; (concentration: 6mM) 0.85 ± 0.13; (concentration: 8mM) 0.947 ± 0.046; (concentration: 10mM) 0.935 ± 0.021.

With “J3KR97 and related entries (UniProt Q9BTW9)”, the NP40-soluble protein abundance was 1 ± 0.1 (concentration: 1mM); 0.99 ± 0.082 (concentration: 2mM); 0.973 ± 0.035 (concentration: 4mM); 0.866 ± 0.13 (concentration: 6mM); 0.977 ± 0.032 (concentration: 8mM); 0.981 ± 0.056 (concentration: 10mM).

Consider “J3QL56 and related entries (UniProt O75880)”, for which the NP40-soluble protein abundance runs as follows: (concentration: 1mM) 0.822 ± 0.031; (concentration: 2mM) 0.879 ± 0.08; (concentration: 4mM) 0.806 ± 0.12; (concentration: 6mM) 0.82 ± 0.049; (concentration: 8mM) 0.785 ± 0.1; (concentration: 10mM) 0.857 ± 0.03.

For the target “H0YGR4 and related entries (UniProt Q9Y3B8)”, the NP40-soluble protein abundance reads like this: (concentration: 1mM) 0.982 ± 0.042; (concentration: 2mM) 0.957 ± 0.063; (concentration: 4mM) 0.935 ± 0.053; (concentration: 6mM) 0.94 ± 0.036; (concentration: 8mM) 0.918 ± 0.1; (concentration: 10mM) 0.898 ± 0.087.

In the case of “K7EM91 and related entries (UniProt O43291)”, the NP40-soluble protein abundance by setting is: (concentration: 1mM) 0.922 ± 0.071; (concentration: 2mM) 0.953 ± 0.1; (concentration: 4mM) 0.986 ± 0.066; (concentration: 6mM) 0.975 ± 0.082; (concentration: 8mM) 0.931 ± 0.096; (concentration: 10mM) 0.917 ± 0.12.

Take “J3KN10 and related entries (UniProt P42356)”: the NP40-soluble protein abundance (concentration: 1mM) was determined as 1.11 ± 0.14; the NP40-soluble protein abundance (concentration: 2mM) was found to be 1.09 ± 0.077; the NP40-soluble protein abundance (concentration: 4mM) came to 1.05 ± 0.025; the NP40-soluble protein abundance (concentration: 6mM) was found to be 1.05 ± 0.064; the NP40-soluble protein abundance (concentration: 8mM) was found to be 1.08 ± 0.029; the NP40-soluble protein abundance (concentration: 10mM) was found to be 1.12 ± 0.12.

For the target “J3KS22 and related entries (UniProt Q7Z4W1)”, the NP40-soluble protein abundance (concentration: 1mM) was 0.937 ± 0.065; the NP40-soluble protein abundance (concentration: 2mM) worked out at 0.947 ± 0.064; the NP40-soluble protein abundance (concentration: 4mM) worked out at 0.891 ± 0.04; the NP40-soluble protein abundance (concentration: 6mM) was determined as 0.89 ± 0.1; the NP40-soluble protein abundance (concentration: 8mM) amounted to 0.911 ± 0.035; the NP40-soluble protein abundance (concentration: 10mM) came to 0.926 ± 0.048.

Take “J9JIE6 and related entries (UniProt Q9UM00)”: the NP40-soluble protein abundance (concentration: 1mM) was 0.912 ± 0.054; the NP40-soluble protein abundance (concentration: 2mM) is 0.96 ± 0.049; the NP40-soluble protein abundance (concentration: 4mM) amounted to 0.97 ± 0.044; the NP40-soluble protein abundance (concentration: 6mM) is 1.06 ± 0.024; the NP40-soluble protein abundance (concentration: 8mM) was determined as 1.04 ± 0.095; the NP40-soluble protein abundance (concentration: 10mM) came out at 1.05 ± 0.028.
